Test results reported in article PMC4364741.
Results are given in words; binding and its absence hold for the method and conditions named. Some entries that bind do so weakly or less than the wild type.

Sequences of proteins named here, by UniProt entry; tags and fusion partners are left off. Residues count along the entry.
UniProt Q9JXK7, residues 24-362: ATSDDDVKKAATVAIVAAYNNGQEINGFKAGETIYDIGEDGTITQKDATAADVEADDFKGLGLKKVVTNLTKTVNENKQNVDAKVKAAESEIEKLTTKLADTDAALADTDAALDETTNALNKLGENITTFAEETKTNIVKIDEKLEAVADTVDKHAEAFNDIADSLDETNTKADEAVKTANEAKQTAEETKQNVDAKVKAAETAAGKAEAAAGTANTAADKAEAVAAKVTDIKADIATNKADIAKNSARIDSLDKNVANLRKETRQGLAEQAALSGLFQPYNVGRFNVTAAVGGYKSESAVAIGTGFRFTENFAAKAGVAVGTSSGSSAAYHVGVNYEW
UniProt Q9JXV4, residues 20-274: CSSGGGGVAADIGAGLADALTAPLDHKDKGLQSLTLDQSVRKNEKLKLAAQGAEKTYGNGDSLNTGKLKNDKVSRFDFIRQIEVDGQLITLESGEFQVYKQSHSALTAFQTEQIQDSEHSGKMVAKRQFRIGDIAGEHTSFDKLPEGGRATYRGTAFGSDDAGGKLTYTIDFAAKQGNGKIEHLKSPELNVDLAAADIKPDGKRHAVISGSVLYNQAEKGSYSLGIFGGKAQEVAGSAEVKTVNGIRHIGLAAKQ
UniProt P26022, residues 18-381: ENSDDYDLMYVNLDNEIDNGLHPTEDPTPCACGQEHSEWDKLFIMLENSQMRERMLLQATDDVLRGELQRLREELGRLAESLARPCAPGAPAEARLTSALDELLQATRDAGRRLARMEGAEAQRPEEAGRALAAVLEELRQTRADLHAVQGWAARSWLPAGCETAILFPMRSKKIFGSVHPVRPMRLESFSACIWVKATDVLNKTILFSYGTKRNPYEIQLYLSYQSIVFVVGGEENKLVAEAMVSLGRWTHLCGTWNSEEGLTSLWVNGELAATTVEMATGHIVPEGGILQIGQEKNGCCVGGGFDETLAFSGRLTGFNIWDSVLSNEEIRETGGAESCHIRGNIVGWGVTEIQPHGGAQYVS
UniProt P48759, residues 18-381: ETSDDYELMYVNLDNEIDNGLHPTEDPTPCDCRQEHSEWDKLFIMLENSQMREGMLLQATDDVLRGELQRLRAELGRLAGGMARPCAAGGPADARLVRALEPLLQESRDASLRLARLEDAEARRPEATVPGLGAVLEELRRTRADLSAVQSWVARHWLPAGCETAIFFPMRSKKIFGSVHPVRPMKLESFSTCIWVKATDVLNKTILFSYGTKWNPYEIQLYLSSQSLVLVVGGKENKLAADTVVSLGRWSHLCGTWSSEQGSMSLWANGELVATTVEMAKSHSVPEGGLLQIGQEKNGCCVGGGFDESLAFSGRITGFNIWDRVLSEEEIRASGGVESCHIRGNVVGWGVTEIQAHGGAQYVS
UniProt P02743, residues 20-223: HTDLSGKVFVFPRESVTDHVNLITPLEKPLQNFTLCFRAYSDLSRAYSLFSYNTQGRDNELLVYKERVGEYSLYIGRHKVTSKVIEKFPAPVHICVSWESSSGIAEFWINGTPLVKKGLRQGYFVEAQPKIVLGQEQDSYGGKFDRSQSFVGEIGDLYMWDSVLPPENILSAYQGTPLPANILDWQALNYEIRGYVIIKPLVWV

Tests used:
Ovoalbumin (OVA) = Ovoalbumin (OVA) (UniProt P01012); test: ELISA; human bPTX3 on immobilized OVA (1 μg/well); A450; both purified
[1] = biological target: T1, Genome-derived Neisserial antigen GNA0667 (Neisseria meningitidis) (UniProt Q9K0E2); test: ELISA; microtiter plate; PTX3 on coated Nm antigens in the presence or not of calcium (10 mM EGTA); both purified
T1 sequence: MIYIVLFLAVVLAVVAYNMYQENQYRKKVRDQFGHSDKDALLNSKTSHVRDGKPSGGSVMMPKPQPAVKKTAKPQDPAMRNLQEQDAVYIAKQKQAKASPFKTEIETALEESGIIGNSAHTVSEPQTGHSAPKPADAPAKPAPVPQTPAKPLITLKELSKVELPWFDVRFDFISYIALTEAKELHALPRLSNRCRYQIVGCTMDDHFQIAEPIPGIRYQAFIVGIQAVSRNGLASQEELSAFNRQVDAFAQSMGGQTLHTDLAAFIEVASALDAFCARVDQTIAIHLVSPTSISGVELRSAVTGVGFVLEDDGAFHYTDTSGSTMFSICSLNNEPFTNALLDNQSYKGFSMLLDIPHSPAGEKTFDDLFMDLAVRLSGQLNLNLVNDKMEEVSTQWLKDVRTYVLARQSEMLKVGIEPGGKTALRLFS

[2] = biological target: T1, Genome-derived Neisserial antigen GNA0667 (Neisseria meningitidis); test: ELISA; microtiter plate; different doses of bPTX3 on coated GNA0667, GNA1030 and GNA2091 (1 μg/well); both purified
[3] = biological target: Genome-derived Neisserial antigen GNA1994 (Neisseria meningitidis) (UniProt Q9JXK7); test: ELISA; plastic wells coated with the recombinant Nm proteins (1 μg/well), incubated with human or murine PTX3, human CRP or SAP (22 pmoles) for 1 h at 37°C, then antibodies; A450; both purified
[4] = biological target: Genome-derived Neisserial antigen GNA1220 (Neisseria meningitidis) (UniProt Q7DDD7); test: as above
[5] = biological target: T1, Genome-derived Neisserial antigen GNA0667 (Neisseria meningitidis); test: as above
[6] = biological target: GNA1870 (factor H binding protein, fHbp) (Neisseria meningitidis) (UniProt Q9JXV4); test: as above
[7] = biological target: T2, GNA2132 (Neisserial heparin binding antigen, NHBA) (Neisseria meningitidis) (UniProt Q7DD37); test: as above
T2 sequence: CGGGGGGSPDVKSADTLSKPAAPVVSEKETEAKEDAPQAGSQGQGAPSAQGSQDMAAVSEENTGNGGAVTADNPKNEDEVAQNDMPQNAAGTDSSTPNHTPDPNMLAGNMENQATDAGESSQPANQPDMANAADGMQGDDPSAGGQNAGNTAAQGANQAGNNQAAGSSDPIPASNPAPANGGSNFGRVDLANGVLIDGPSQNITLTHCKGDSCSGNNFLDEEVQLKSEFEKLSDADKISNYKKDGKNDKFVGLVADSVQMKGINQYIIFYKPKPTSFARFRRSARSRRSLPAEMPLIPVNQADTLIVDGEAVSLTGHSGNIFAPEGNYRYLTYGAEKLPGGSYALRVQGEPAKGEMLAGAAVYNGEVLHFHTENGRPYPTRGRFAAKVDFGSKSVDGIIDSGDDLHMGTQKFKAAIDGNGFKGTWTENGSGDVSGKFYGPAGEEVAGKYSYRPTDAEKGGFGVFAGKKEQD

[8] = biological target: T1, Genome-derived Neisserial antigen GNA0667 (Neisseria meningitidis); test: ELISA; microtiter plate; N-terminal or C-terminal PTX3 domains (22 pmoles) on coated GNA0667, GNA1030 and GNA2091; percentage of binding compared to full length PTX3; both purified

Row | Substance | binding (Ovoalbumin (OVA)) | binding [1] | binding [2] | binding [3] | binding [4] | binding [5] | binding [6] | binding [7] | binding [8]
1 | Biotinylated human PTX3 (bPTX3) (from UniProt P26022 18-381) | no binding | binds | binds | – | – | – | – | – | –
2 | Recombinant human long pentraxin 3 (PTX3) (from UniProt P26022 18-381) | – | – | – | no binding (tested: 22 pmoles) | no binding (tested: 22 pmoles) | binds | no binding (tested: 22 pmoles) | no binding (tested: 22 pmoles) | binds
3 | Recombinant murine PTX3 (from UniProt P48759 18-381) | – | – | – | no binding (tested: 22 pmoles) | no binding (tested: 22 pmoles) | binds | no binding (tested: 22 pmoles) | no binding (tested: 22 pmoles) | –
4 | Serum amyloid P component (from UniProt P02743 20-223) | – | – | – | – | – | binds | – | – | –
